Assay results taken from patent US12325736B2, “Transduced T cells expressing human SSTR2 and application thereof” (Cornell University, priority 2016, dated 2025).

Tested on: Jurkat tumors (100%-0% SSTR2+)
Test: PET/CT DOTATOC uptake by subcutaneous Jurkat T cell xenografts (0-100% SSTR2+)
Type: in vivo, NSG mice
Experimental: All animal experiments were performed in strict accordance with the recommendations in the Guide for the Care and Use of Laboratory Animals of the National Institutes of Health. This study's animal protocol was approved by the Institutional Laboratory Animal Use and Care Committee of Weill Cornell Medicine. SSTR2 expressing Jurkats were spiked with increasing numbers of non-transduced Jurkats to derive distinct cultures containing defined percentages of SSTR2 expression ranging from 100-0%. For each subcutaneous xenograft, 5×10^6 total cells were resuspended in 100 μl Matrigel Basement Membrane Matrix (Corning) and injected bilaterally into nonobese diabetic (NOD)/LtSz Prkdc^scid I12rg^tm1Wj1/J (NSG) mice (Jackson Laboratory). Measurements of tumor size were made using an external digital caliper. Tumor volume was calculated by using the modified ellipsoid formula 1/2(Length×Width^2). Length was measured as the longer dimension. Each dimensional measurement was rounded to the nearest 0.5 cm.
Projection data was acquired in a cone-beam geometry with approximately […] steps at 1 degree angular increments. At least 10 million coincidence events were acquired for PET per study using a 250 to 750 keV energy window and a 6 ns timing window. […] To compute DOTATOC uptake by Jurkat tumors, the ellipsoidal ROIs (Amide) were placed to enclose subcutaneous tumors that closely match overall tumor size and shape. For systemic 8505C tumor models, ellipsoids were drawn separately on the left and right sides of lungs to enclose much of five lobes of mouse lungs. The % ID/cm^3 values, computed relative to the counts in a reference tube, can be approximated to a standard uptake value (SUV^61) by dividing % ID/cm^3 by four, assuming injection efficiency of 100% and 25 g of body weight. Visualization and analyses of PET/CT images were performed using Amide (amide.sourceforge.net).

[1] = tumors larger than 65 mm^3, cutoff 1.1% ID/cm^3, 1% SSTR2+

## C[C@@H](O)[C@@H]1NC(=O)[C@H](CCCCN)NC(=O)[C@@H](Cc2c[nH]c3ccccc23)NC(=O)[C@H](Cc2ccc(O)cc2)NC(=O)[C@@H](NC(=O)[C@@H](Cc2ccccc2)NC(=O)CN2CCN(CC(=O)O)CCN(CC(=O)O)CCN(CC(=O)O)CC2)CSSC[C@@H](C(=O)N[C@H](CO)[C@@H](C)O)NC1=O [DOTATOC, 1,4,7,10-tetraazacyclododecane-N^I,N^II,N^III,N^IIII-tetraacetic acid (D)-Phe^1-Tyr^3-octreotide]
Tumors below 65 mm^3, cutoff 0.6% ID/cm^3
  specificity: 95%
Tumors below 65 mm^3, cutoff 0.6% ID/cm^3, 1% SSTR2+
  detection sensitivity (% true positive rates): 54%
Tumors below 65 mm^3, cutoff 0.6% ID/cm^3, 10% SSTR2+
  detection sensitivity (% true positive rates): 69%
Tumors below 65 mm^3, cutoff 0.6% ID/cm^3, 100% SSTR2+
  detection sensitivity (% true positive rates): 95%
[1]
  sensitivity: 87%
  specificity: 95%
Tumors larger than 65 mm^3, cutoff 1.1% ID/cm^3, SSTR2+ T cell density at or above 10%
  sensitivity: > 95%
